Data from PubChem BioAssay AID1347076 (National Center for Advancing Translational Sciences (NCATS), 2019).
About 13,000 (3.2%) of roughly 400,000 compounds were called active. Inconclusive results, whose numbers are uncertain, are shown with a selection of clear calls. The call rests on the fitted dose curve; in most records, active means well fitted cell-killing curve with a large enough effect; inconclusive means small, poorly fitted or top-dose-only effect, or effect the other way; inactive means flat fitted curve, though single readings scatter. Potencies beside an inconclusive call are fits to weak or partial responses and may not hold up.

Assay: qHTS assay for MDR1-selective chemotherapeutics: Primary screen using the drug-selected MDR subline cells KB-V1; further: nearly all actives have a fitted effect of over 60% in size
Conditions: KB-V1 MDR cells viability, CellTiter-Glo, 72 h; activity change, negative = cytotoxicity: at 46.1 µM (top of the series)
Method in brief: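 Drug-selected KB-V1 cells, grown in DMEM lacking phenol red with 10% FBS, receive compound titrations; after three days at 37 degrees C, surviving cell ATP is quantified by CellTiter-Glo luminescence and responses normalized and curve-fitted.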
On the % scale 0 is the no-effect control and ±100 the full control effect; potency means the concentration at half of the fitted maximal effect.

Row | Structure (SMILES) | Potency | activity change, negative = cytotoxicity
1 | CCOc1ccc(CCNC(=O)c2sc3nc4n(c(=O)c3c2C)CCCC4)cc1 | inconclusive: 5.8 µM [cytotoxic, full curve] | –
2 | COc1ccc(CNC(=O)c2c([S-])n(-c3ccc(C)cc3)c3cccc[n+]23)cc1 | inconclusive: 7.31 µM [cytotoxic, partial curve] | –
3 | Fc1ccc(Cn2nnnc2C(c2ccc(Cl)cc2)N2CCSCC2)cc1 (stereo not drawn) | inconclusive: 16.4 µM [cytotoxic, single point] | –
4 | CCOC(=O)C1=C[C@@H](C(C)(C)C)N(S(=O)(=O)c2ccc(C)cc2)[C@H]1c1ccccc1Cl | inconclusive: 29.1 µM [cytotoxic, single point] | –
5 | COc1cc(Cl)c(C)cc1NC(=O)COC(=O)C1CC1C (stereo not drawn) | inconclusive: 16.4 µM [rising, partial curve, poor fit] | –
6 | CCOc1ccc(CNS(=O)(=O)c2ccc(-c3ccc(=O)[nH]n3)o2)cc1OC | inconclusive: 20.6 µM [rising, single point] | –
7 | Cc1cc(C)c(OCC(O)CN2CCN(c3ccccn3)CC2)c(C)c1 (stereo not drawn) | inconclusive: 29.1 µM [cytotoxic, single point] | –
8 | Cc1[nH]c(=O)c(C#N)c(C)c1[N+](=O)[O-] | inactive | –
9 | CCOC(=O)c1cccc(NC(=O)Nc2cc(OC)ccc2OC)c1 | inactive | –
10 | Cc1sc2c(c1C)c(=O)n(Cc1ccccc1)c(=O)n2CC(=O)Nc1cccc(Cl)c1 | – | inconclusive: -22.9%
11 | CC(=O)Oc1ccc(N(C(C)=O)S(=O)(=O)c2ccc(C)cc2)c2ccccc12 | inconclusive: 23.1 µM [cytotoxic, partial curve, poor fit] | –
12 | CCc1cccc(CC)c1NC(=O)CSc1nc2ccc(N3C(=O)C4C5C=CC(C5)C4C3=O)cc2s1 (stereo not drawn) | active: 2.59 µM | –
13 | O=C(c1ccc([N+](=O)[O-])o1)N1CCN(c2nc3c(Cl)cccc3s2)CC1 | inconclusive: 20.6 µM [cytotoxic, single point] | –
14 | CCc1ccc(N=C2NC(=O)CS2)cc1 | inconclusive: 29.1 µM [cytotoxic, single point] | –
15 | CCCCNC(=O)/C(=C/c1ccco1)NC(=O)c1ccco1 | inconclusive: 29.1 µM [rising, single point] | –
16 | Oc1cccc(C(=S)N2CCC(Cc3ccccc3)CC2)c1 | – | inconclusive: 32.2%
17 | COc1ccc(C(=O)C2CCCN(Cc3ccc(C#CCCO)cc3)C2)c(OC)c1 (stereo not drawn) | inconclusive: 6.51 µM [cytotoxic, partial curve] | –
18 | O=C(Nc1cccc(S(=O)(=O)C(F)F)c1)c1ccc(S(=O)(=O)N2CCOCC2)cc1 | inactive | –
19 | Cc1onc(-c2c(F)cccc2Cl)c1C(=O)Nc1sc2c(c1C(N)=O)CCC2 | inconclusive: 12.6 µM [cytotoxic, partial curve, poor fit] | –
20 | CCOc1ncccc1C(=O)Nc1nnc(C2CC2)s1 | inconclusive: 13 µM [cytotoxic, partial curve, poor fit] | –
21 | N#C/C(=N\Nc1cccc(Cl)c1)C(=O)c1ccccc1 | inconclusive: 20.6 µM [cytotoxic, partial curve, poor fit] | –
22 | Oc1ccc(-c2n[nH]c(C(F)(F)F)c2-c2ccccc2)c(O)c1 | inconclusive: 0.731 µM [cytotoxic, full curve] | –
23 | COc1ccccc1-c1nc(C#N)c(N2CCc3ccccc3C2)o1 | inconclusive: 20.6 µM [cytotoxic, partial curve] | –

Row | Structure (SMILES) | Potency | activity change, negative = cytotoxicity
24 | CCOc1ccc(S(=O)(=O)NCCCl)cc1 | inconclusive: 25.9 µM [cytotoxic, single point] | –
25 | CC(Oc1ccc(Cl)cc1)C(=O)Nc1sccc1C(N)=O (stereo not drawn) | active: 9.2 µM | –
26 | CCCSc1nnc(NC(=O)CSc2nc3[nH]c(=O)cc(O)c3s2)s1 | inconclusive: 29.1 µM [rising, single point] | –
27 | O=C(O)C1=CC(c2ccc(Br)cc2)n2ncnc2N1 (stereo not drawn) | inconclusive: 29.1 µM [rising, single point] | –
28 | Cc1csc2c(N3CCN(C(=O)Nc4ccc(Cl)c(Cl)c4)CC3)ncnc12 | inconclusive: 20.6 µM [cytotoxic, single point] | –
29 | Brc1ccc(C2=Nn3c(nnc3-c3n[nH]c4c3CCC4)SC2)cc1 | active: 1.16 µM | –
30 | Cc1ccc(Cn2c(-c3nonc3N)nc3ccccc32)cc1 | inactive | –
31 | O=C(C1CCCCC1)N1CCN=C1SCc1cccc([N+](=O)[O-])c1 | inconclusive: 4.11 µM [cytotoxic, partial curve, poor fit] | –
32 | O=C(Nc1ccc2nc(-c3ccco3)c(-c3ccco3)nc2c1)NC1CC1 | inconclusive: 6.51 µM [cytotoxic, partial curve, poor fit] | –
33 | Cc1onc(-c2c(F)cccc2Cl)c1C(=O)N(C)CCc1ccccn1 | inactive | –
34 | COc1ccc(-n2nc(C(=O)NCC(=O)N3CCN(c4ccccn4)CC3)c3ccccc3c2=O)cc1 | inconclusive: 25.9 µM [cytotoxic, single point] | –
35 | COc1ccc(NC(=S)NC(NC(=O)c2cccc3ccccc23)C(Cl)(Cl)Cl)c([N+](=O)[O-])c1 (stereo not drawn) | inactive | –
36 | CCCCNS(=O)(=O)c1ccc(NC(=O)Cc2ccccc2[N+](=O)[O-])cc1 | inconclusive: 23.1 µM [cytotoxic, single point] | –
37 | CCOc1ccc(-c2csc(/C(C#N)=C\c3ccc(O)c([N+](=O)[O-])c3)n2)cc1 | active: 5.17 µM | –
38 | O=C(CN(Cc1ccccc1)C(=O)CCC(=O)Nc1ccccn1)NCc1ccco1 | inconclusive: 23.1 µM [cytotoxic, single point] | –
39 | COc1ccc(OCC(=O)N/N=C/c2ccc(OC)c(OC)c2C(=O)O)cc1 | inconclusive: 5.17 µM [rising, full curve, poor fit] | –
40 | CC1CCN(CCCNS(=O)(=O)c2ccc3c(c2)CCN3C(=O)C2CC2)CC1 | inconclusive: 0.731 µM [rising, full curve, poor fit] | –
41 | CCOP(=O)(c1ccc(N(C)C)cc1)C(O)c1ccc(Cl)cc1 (stereo not drawn) | inconclusive: 16.4 µM [cytotoxic, partial curve] | –
42 | Cc1cc(=O)[nH]c(SCCCOc2ccc(F)cc2)n1 | active: 18.4 µM | –
43 | Cc1ccccc1NC1=C/C(=N\S(=O)(=O)c2cccs2)c2ccccc2C1=O | active: 7.31 µM | –
44 | CC(Sc1ccccc1)C(=O)Nc1cccc(N(C)S(C)(=O)=O)c1 (stereo not drawn) | inconclusive: 25.9 µM [cytotoxic, single point] | –
45 | CC(C)Cn1c(CN(Cc2ccccc2)Cc2ccccc2)nc2c1c(=O)n(C)c(=O)n2C | inconclusive: 29.1 µM [cytotoxic, single point] | –
46 | CCn1c2ccccc2c2cc(NC(=O)CNCc3ccccc3OC)ccc21 | inconclusive: 29.1 µM [cytotoxic, single point] | –

Given as tab-separated lines: entries from further up.
Row	Structure (SMILES)	Potency	activity change, negative = cytotoxicity
5	COc1cc(Cl)c(C)cc1NC(=O)COC(=O)C1CC1C (stereo not drawn)	inconclusive: 16.4 µM [rising, partial curve, poor fit]	–
18	O=C(Nc1cccc(S(=O)(=O)C(F)F)c1)c1ccc(S(=O)(=O)N2CCOCC2)cc1	inactive	–
38	O=C(CN(Cc1ccccc1)C(=O)CCC(=O)Nc1ccccn1)NCc1ccco1	inconclusive: 23.1 µM [cytotoxic, single point]	–

Continued.

Row | Structure (SMILES) | Potency | activity change, negative = cytotoxicity
47 | CCCNC(=O)C1(C)CCN(Cc2ccc(OCc3ccccc3)cc2)C1 (stereo not drawn) | inconclusive: 2.31 µM [cytotoxic, full curve] | –
48 | COc1ccc(C2CC(c3ccccc3)=NN2C(=S)Nc2ccccc2)cc1 (stereo not drawn) | inactive | –
49 | COc1ccc(CNC(=O)COC(=O)c2cccn2C)cc1 | inactive | –
50 | COc1ccc(OC)c(CNn2c(-c3cccc(C)c3)nc3ccccc3c2=O)c1 | inconclusive: 4.11 µM [cytotoxic, full curve] | –
51 | CN(CC12CC3CC(CC(C3)C1)C2)C(=O)c1ccco1 | – | inconclusive: -4.83%
52 | Cn1c2ccc(F)cc2c2nnc(SCCN3CCCCC3)nc21 | inactive | –
53 | COc1ccc(CN2C(=O)c3ccccc3C(/C=N/OCc3ccc(Cl)cc3)C2=O)cc1 (stereo not drawn) | inconclusive: 18.4 µM [cytotoxic, partial curve] | –
54 | C#CCOc1ccc(/C=C2/C(=O)NN(c3ccc(F)cc3)C2=O)cc1OC | inconclusive: 6.51 µM [rising, full curve, poor fit] | –
55 | Cc1ccc(-c2n[nH]c(=S)n2/N=C/c2c(C)nn(-c3ccccc3)c2C)cc1 | inactive | –
56 | CCOC(=O)N1CCN(C(=O)C2CCN(Cc3ccc(OC)cc3OC)CC2)CC1 | inconclusive: 0.082 µM [rising, full curve] | –
57 | CC1CCc2cc(F)ccc2N1C(=O)CSc1nnc2c(n1)[nH]c1ccc(F)cc12 (stereo not drawn) | active: 20.6 µM | –
58 | Cc1ccc2c(c1)N(Cc1cccc(F)c1)C(=O)C(C)O2 (stereo not drawn) | inactive | –
59 | Cc1cc(NC(=O)c2ccc(F)cc2)ccc1NC(=O)c1ccco1 | inconclusive: 16.4 µM [cytotoxic, single point] | –
60 | CC1Cc2ccccc2N1CC(=O)NCc1ccc2c(c1)OCO2 (stereo not drawn) | inconclusive: 20.6 µM [cytotoxic, single point] | –
61 | COc1ccc(NC(=O)c2ccc(NC(=O)c3cccs3)cc2)cc1 | inactive | –
62 | O=S(=O)(Nc1ccc(C(O)(C(F)(F)F)C(F)(F)F)cc1)c1cccc2cccnc12 | inactive | –
63 | NC(=O)c1ccc(NC(=O)CN2CCN(Cc3ccccc3)CC2)cc1 | inactive | –
64 | O=C(Oc1c(-c2ccccc2Cl)oc2ccccc2c1=O)c1ccc(Cl)cc1 | inconclusive: 23.1 µM [cytotoxic, single point] | –
65 | C[C@@H]1CCCCO[C@@H](CN(C)C(=O)CCCN(C)C)[C@@H](C)CN([C@H](C)CO)C(=O)c2cc(NC(=O)CCC(F)(F)F)ccc2O1 | inactive | –
66 | CC(C)(C)C(=O)OCCNc1nc(-c2ccccc2)nc2ccccc12 | inconclusive: 16.4 µM [cytotoxic, single point] | –
67 | O=C(Nc1nc(-c2ccc(Cl)s2)cs1)c1ccco1 | inconclusive: 16.4 µM [cytotoxic, single point] | –
68 | Cc1ccc(C2=[N+]([O-])C(C)(C)N(O)C2(C)C)cc1 | inconclusive: 18.4 µM [rising, single point] | –
